Some results were stated once for a whole list of compounds, not compound by compound.
Biological target: Cyclin E1 (Homo sapiens, UniProt P24864+Q96SW2)
Assay: Cyclin E1 Cellular Degradation Assay (MSD)
Type: cell-based
Design: endogenous in cells; host or cells: OVCAR3
Conditions: degradation of Cyclin E1 over degradation of GSPT1, Table 18
Outline: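 OVCAR3 cells treated with compound for 24 h at 37 °C, lysed, and cyclin E1 measured by MSD sandwich immunoassay (rabbit capture, mouse detection anti-CCNE1). Reference degrader at […] defined 110% response; DC50 and Dmax derived from response.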

Amino acid sequences for entries named in this document (tags omitted). A change or cut given only in a name is not applied to a line headed by its entry.
UniProt P24864, whole entry: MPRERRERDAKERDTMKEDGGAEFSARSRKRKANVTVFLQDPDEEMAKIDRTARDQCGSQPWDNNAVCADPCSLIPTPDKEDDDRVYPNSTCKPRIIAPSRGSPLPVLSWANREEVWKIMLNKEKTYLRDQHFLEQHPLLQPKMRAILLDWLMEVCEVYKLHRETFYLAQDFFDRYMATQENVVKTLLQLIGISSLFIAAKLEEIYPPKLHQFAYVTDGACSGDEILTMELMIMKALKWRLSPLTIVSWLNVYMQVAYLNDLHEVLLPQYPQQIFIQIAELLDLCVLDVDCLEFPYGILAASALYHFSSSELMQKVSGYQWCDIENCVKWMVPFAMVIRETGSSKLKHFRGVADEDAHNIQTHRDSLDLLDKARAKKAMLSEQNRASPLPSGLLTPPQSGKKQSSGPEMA
UniProt Q96SW2: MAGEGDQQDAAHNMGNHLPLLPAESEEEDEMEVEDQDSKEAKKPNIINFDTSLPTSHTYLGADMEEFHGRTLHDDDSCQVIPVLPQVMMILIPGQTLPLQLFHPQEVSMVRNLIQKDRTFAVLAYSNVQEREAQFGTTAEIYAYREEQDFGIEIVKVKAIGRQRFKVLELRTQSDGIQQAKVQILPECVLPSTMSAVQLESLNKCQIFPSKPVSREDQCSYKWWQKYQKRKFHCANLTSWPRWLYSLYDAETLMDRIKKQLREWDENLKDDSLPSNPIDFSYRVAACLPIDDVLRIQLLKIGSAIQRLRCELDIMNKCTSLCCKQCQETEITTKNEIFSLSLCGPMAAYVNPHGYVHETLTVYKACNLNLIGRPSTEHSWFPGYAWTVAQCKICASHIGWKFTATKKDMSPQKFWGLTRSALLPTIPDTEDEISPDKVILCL

selectivity, ratio of GSPT1 DC50/Cyclin E1 DC50, at least 9:
O=C1CCC(N2Cc3ccc(COC(=O)Nc4ccc(Oc5ccc(F)cc5)cc4F)c(O[C@@H]4CCCOC4)c3C2=O)C(=O)N1 (stereo partly drawn) [Example 147, [2-(2,6-dioxopiperidin-3-yl)-4-[(3R)-oxan-3-yloxy]-3-oxo-2,3-dihydro-1H-isoindol-5-yl]methyl N-[2-fluoro-4-(4-fluorophenoxy)phenyl]carbamate]
O=C1CCC(N2Cc3ccc(COC(=O)Nc4ccc(Oc5ccc(F)cc5F)cc4F)c(O[C@@H]4CCCOC4)c3C2=O)C(=O)N1 (stereo partly drawn) [Example 148, [2-(2,6-dioxopiperidin-3-yl)-4-[(3R)-oxan-3-yloxy]-3-oxo-2,3-dihydro-1H-isoindol-5-yl]methyl N-[4-(2,4-difluorophenoxy)-2-fluorophenyl]carbamate]
O=C1CCC(N2Cc3ccc(COC(=O)Nc4ccc(Oc5cc(F)cc(F)c5)cc4F)c(O[C@@H]4CCCOC4)c3C2=O)C(=O)N1 (stereo partly drawn) [Example 149, [2-(2,6-dioxopiperidin-3-yl)-4-[(3R)-oxan-3-yloxy]-3-oxo-2,3-dihydro-1H-isoindol-5-yl]methyl N-[4-(3,5-difluorophenoxy)-2-fluorophenyl]carbamate]
O=C1CCC(N2Cc3ccc(COC(=O)Nc4ccc(Oc5cc(F)c(F)c(F)c5)cc4F)c(O[C@@H]4CCCOC4)c3C2=O)C(=O)N1 (stereo partly drawn) [Example 150, [2-(2,6-dioxopiperidin-3-yl)-4-[(3R)-oxan-3-yloxy]-3-oxo-2,3-dihydro-1H-isoindol-5-yl]methyl N-[2-fluoro-4-(3,4,5-trifluorophenoxy)phenyl]carbamate]
O=C1CCC(N2Cc3ccc(COC(=O)Nc4ccc(Oc5ccc(F)c(F)c5)cc4)c(OC4CCCC4)c3C2=O)C(=O)N1 (stereo not drawn) [Example 151, [4-(cyclopentyloxy)-2-(2,6-dioxopiperidin-3-yl)-3-oxo-2,3-dihydro-1H-isoindol-5-yl]methyl N-[4-(3,4-difluorophenoxy)phenyl]carbamate]
O=C1CCC(N2Cc3ccc(COC(=O)Nc4ccc(Oc5ccc(F)c(F)c5)cc4)c(O[C@H]4CCOC4)c3C2=O)C(=O)N1 (stereo partly drawn) [Example 152, [2-(2,6-dioxopiperidin-3-yl)-3-oxo-4-[(3S)-oxolan-3-yloxy]-2,3-dihydro-1H-isoindol-5-yl]methyl N-[4-(3,4-difluorophenoxy)phenyl]carbamate]
O=C1CCC(N2Cc3ccc(COC(=O)Nc4ccc(Oc5ccc(F)c(F)c5)cc4)c(O[C@@H]4CCOC4)c3C2=O)C(=O)N1 (stereo partly drawn) [Example 153, [2-(2,6-dioxopiperidin-3-yl)-3-oxo-4-[(3R)-oxolan-3-yloxy]-2,3-dihydro-1H-isoindol-5-yl]methyl N-[4-(3,4-difluorophenoxy)phenyl]carbamate]
O=C1CCC(N2Cc3ccc(COC(=O)Nc4ccc(Oc5ccc(F)c(F)c5)cc4F)c(O[C@@H]4CCOC4)c3C2=O)C(=O)N1 (stereo partly drawn) [Example 154, [2-(2,6-dioxopiperidin-3-yl)-3-oxo-4-[(3R)-oxolan-3-yloxy]-2,3-dihydro-1H-isoindol-5-yl]methyl N-[4-(3,4-difluorophenoxy)-2-fluorophenyl]carbamate]
CC(C)(O)COc1c(COC(=O)Nc2ccc(Oc3ccc(F)c(F)c3)cc2)ccc2c1C(=O)N(C1CCC(=O)NC1=O)C2 (stereo not drawn) [Example 159, [2-(2,6-dioxopiperidin-3-yl)-4-(2-hydroxy-2-methylpropoxy)-3-oxo-2,3-dihydro-1H-isoindol-5-yl]methyl N-[4-(3,4-difluorophenoxy)phenyl]carbamate]
CC(C)(O)COc1c(COC(=O)Nc2ccc(Oc3ccccc3)cc2)ccc2c1C(=O)N(C1CCC(=O)NC1=O)C2 (stereo not drawn) [Example 160, [2-(2,6-dioxopiperidin-3-yl)-4-(2-hydroxy-2-methylpropoxy)-3-oxo-2,3-dihydro-1H-isoindol-5-yl]methyl N-(4-phenoxyphenyl)carbamate]
CC(C)(O)COc1c(COC(=O)Nc2ccc(Oc3ccc(F)c(F)c3)cc2F)ccc2c1C(=O)N(C1CCC(=O)NC1=O)C2 (stereo not drawn) [Example 161, [2-(2,6-dioxopiperidin-3-yl)-4-(2-hydroxy-2-methylpropoxy)-3-oxo-2,3-dihydro-1H-isoindol-5-yl]methyl N-[4-(3,4-difluorophenoxy)-2-fluorophenyl]carbamate]
CC(C)(O)COc1c(COC(=O)Nc2ccc(Oc3ccc(F)cc3)cc2F)ccc2c1C(=O)N(C1CCC(=O)NC1=O)C2 (stereo not drawn) [Example 162, [2-(2,6-dioxopiperidin-3-yl)-4-(2-hydroxy-2-methylpropoxy)-3-oxo-2,3-dihydro-1H-isoindol-5-yl]methyl N-[2-fluoro-4-(4-fluorophenoxy)phenyl]carbamate]
CC(C)(O)COc1c(COC(=O)Nc2ccc(Oc3ccc(F)cc3F)cc2F)ccc2c1C(=O)N(C1CCC(=O)NC1=O)C2 (stereo not drawn) [Example 163, [2-(2,6-dioxopiperidin-3-yl)-4-(2-hydroxy-2-methylpropoxy)-3-oxo-2,3-dihydro-1H-isoindol-5-yl]methyl N-[4-(2,4-difluorophenoxy)-2-fluorophenyl]carbamate]
CC(C)(O)COc1c(COC(=O)Nc2ccc(Oc3cc(F)cc(F)c3)cc2F)ccc2c1C(=O)N(C1CCC(=O)NC1=O)C2 (stereo not drawn) [Example 164, [2-(2,6-dioxopiperidin-3-yl)-4-(2-hydroxy-2-methylpropoxy)-3-oxo-2,3-dihydro-1H-isoindol-5-yl]methyl N-[4-(3,5-difluorophenoxy)-2-fluorophenyl]carbamate]
CC(C)(O)COc1c(COC(=O)Nc2ccc(Oc3cc(F)c(F)c(F)c3)cc2F)ccc2c1C(=O)N(C1CCC(=O)NC1=O)C2 (stereo not drawn) [Example 165, [2-(2,6-dioxopiperidin-3-yl)-4-(2-hydroxy-2-methylpropoxy)-3-oxo-2,3-dihydro-1H-isoindol-5-yl]methyl N-[2-fluoro-4-(3,4,5-trifluorophenoxy)phenyl]carbamate]
O=C1CCC(N2Cc3ccc(COC(=O)Nc4ccc(Oc5ccc(F)c(F)c5)cc4)c(O[C@H]4CC[C@H](O)CC4)c3C2=O)C(=O)N1 (stereo partly drawn) [Example 166, [2-(2,6-dioxopiperidin-3-yl)-3-oxo-4-{[(1R,4R)-4-hydroxycyclohexyl]oxy}-2,3-dihydro-1H-isoindol-5-yl]methyl N-[4-(3,4-difluorophenoxy)phenyl]carbamate]
O=C1CCC(N2Cc3ccc(COC(=O)Nc4ccc(Oc5ccc(F)c(F)c5)cc4)c(O[C@H]4CC[C@@H](O)CC4)c3C2=O)C(=O)N1 (stereo partly drawn) [Example 167, [2-(2,6-dioxopiperidin-3-yl)-3-oxo-4-{[(1S,4S)-4-hydroxycyclohexyl]oxy}-2,3-dihydro-1H-isoindol-5-yl]methyl N-[4-(3,4-difluorophenoxy)phenyl]carbamate]
COCCOc1c(COC(=O)Nc2ccc(Oc3ccc(F)c(F)c3)cc2)ccc2c1C(=O)N(C1CCC(=O)NC1=O)C2 (stereo not drawn) [Example 168, [2-(2,6-dioxopiperidin-3-yl)-4-(2-methoxyethoxy)-3-oxo-2,3-dihydro-1H-isoindol-5-yl]methyl N-[4-(3,4-difluorophenoxy)phenyl]carbamate]
COCCOc1c(COC(=O)Nc2ccc(Oc3ccc(F)c(F)c3)cc2F)ccc2c1C(=O)N(C1CCC(=O)NC1=O)C2 (stereo not drawn) [Example 169, [2-(2,6-dioxopiperidin-3-yl)-4-(2-methoxyethoxy)-3-oxo-2,3-dihydro-1H-isoindol-5-yl]methyl N-[4-(3,4-difluorophenoxy)-2-fluorophenyl]carbamate]
O=C1CCC(N2Cc3ccc(COC(=O)Nc4ccc(Oc5ccc(F)c(F)c5)cc4)c(OC4CCCOCC4)c3C2=O)C(=O)N1 (stereo not drawn) [Example 170, [2-(2,6-dioxopiperidin-3-yl)-4-(oxepan-4-yloxy)-3-oxo-2,3-dihydro-1H-isoindol-5-yl]methyl N-[4-(3,4-difluorophenoxy)phenyl]carbamate]
O=C1CCC(N2Cc3ccc(COC(=O)Nc4ccc(Oc5ccccc5)cc4)c(Oc4cccnc4)c3C2=O)C(=O)N1 (stereo not drawn) [Example 171, [2-(2,6-dioxopiperidin-3-yl)-3-oxo-4-(pyridin-3-yloxy)-2,3-dihydro-1H-isoindol-5-yl]methyl N-(4-phenoxyphenyl)carbamate]
O=C1CCC(N2Cc3ccc(COC(=O)Nc4ccc(Oc5ccc(F)c(F)c5)cc4)c(Oc4cccnc4)c3C2=O)C(=O)N1 (stereo not drawn) [Example 172, [2-(2,6-dioxopiperidin-3-yl)-3-oxo-4-(pyridin-3-yloxy)-2,3-dihydro-1H-isoindol-5-yl]methyl N-[4-(3,4-difluorophenoxy)phenyl]carbamate]
O=C1CC[C@H](N2Cc3ccc(COC(=O)Nc4ccc(Oc5ccc(F)c(F)c5)cc4)c(OCCCc4ccccc4)c3C2=O)C(=O)N1 [Example 173, {2-[(3S)-2,6-dioxopiperidin-3-yl]-3-oxo-4-(3-phenylpropoxy)-2,3-dihydro-1H-isoindol-5-yl}methyl N-[4-(3,4-difluorophenoxy)phenyl]carbamate]
COC(=O)COc1c(COC(=O)Nc2ccc(Oc3ccc(F)c(F)c3)cc2)ccc2c1C(=O)N(C1CCC(=O)NC1=O)C2 (stereo not drawn) [Example 174, Methyl 2-({5-[({[4-(3,4-difluorophenoxy)phenyl]carbamoyl}oxy)methyl]-2-(2,6-dioxopiperidin-3-yl)-3-oxo-2,3-dihydro-1H-isoindol-4-yl}oxy)acetate]

From patent publication US20250084056A1, “SUBSTITUTED OXOISOINDOLINYL PIPERIDINE-2,6-DIONE COMPOUNDS” (BRISTOL-MYERS SQUIBB COMPANY, priority 2023, published 2025)
